Data as given in article PMC3430618.
No constants are given. Whether binding was seen depends on the method and setting. Binding seen in cells or lysates may run through a third protein. Some results given as binding are weak or reduced against the parent protein; the word gives no strength.

Chains of the proteins cited; added tags and fusions are not shown.
UniProt P34152: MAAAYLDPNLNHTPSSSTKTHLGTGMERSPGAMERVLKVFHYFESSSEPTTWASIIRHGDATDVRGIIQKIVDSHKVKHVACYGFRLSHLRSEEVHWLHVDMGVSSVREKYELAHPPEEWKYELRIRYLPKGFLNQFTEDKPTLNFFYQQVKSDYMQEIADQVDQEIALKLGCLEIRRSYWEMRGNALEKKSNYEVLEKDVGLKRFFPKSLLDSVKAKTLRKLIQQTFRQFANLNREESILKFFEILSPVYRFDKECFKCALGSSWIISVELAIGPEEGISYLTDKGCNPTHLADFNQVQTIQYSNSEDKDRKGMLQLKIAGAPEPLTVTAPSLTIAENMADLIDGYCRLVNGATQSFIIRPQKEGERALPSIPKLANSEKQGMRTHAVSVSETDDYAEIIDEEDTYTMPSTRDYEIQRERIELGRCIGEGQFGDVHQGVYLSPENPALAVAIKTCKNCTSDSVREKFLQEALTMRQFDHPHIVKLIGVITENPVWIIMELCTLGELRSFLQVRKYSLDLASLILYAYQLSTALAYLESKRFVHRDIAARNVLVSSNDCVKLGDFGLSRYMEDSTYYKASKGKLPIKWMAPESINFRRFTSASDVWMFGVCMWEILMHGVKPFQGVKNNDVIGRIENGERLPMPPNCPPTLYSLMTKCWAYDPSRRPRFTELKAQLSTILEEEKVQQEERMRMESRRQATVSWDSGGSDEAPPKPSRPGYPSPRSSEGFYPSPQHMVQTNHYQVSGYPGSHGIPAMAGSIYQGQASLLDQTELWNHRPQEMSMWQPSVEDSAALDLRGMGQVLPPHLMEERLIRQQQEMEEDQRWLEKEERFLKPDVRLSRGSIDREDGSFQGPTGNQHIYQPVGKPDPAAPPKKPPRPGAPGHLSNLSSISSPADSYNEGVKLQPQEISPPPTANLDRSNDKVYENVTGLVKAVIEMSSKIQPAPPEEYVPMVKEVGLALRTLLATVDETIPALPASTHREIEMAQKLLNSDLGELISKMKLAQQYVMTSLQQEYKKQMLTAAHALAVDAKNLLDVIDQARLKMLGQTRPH
UniProt Q60598: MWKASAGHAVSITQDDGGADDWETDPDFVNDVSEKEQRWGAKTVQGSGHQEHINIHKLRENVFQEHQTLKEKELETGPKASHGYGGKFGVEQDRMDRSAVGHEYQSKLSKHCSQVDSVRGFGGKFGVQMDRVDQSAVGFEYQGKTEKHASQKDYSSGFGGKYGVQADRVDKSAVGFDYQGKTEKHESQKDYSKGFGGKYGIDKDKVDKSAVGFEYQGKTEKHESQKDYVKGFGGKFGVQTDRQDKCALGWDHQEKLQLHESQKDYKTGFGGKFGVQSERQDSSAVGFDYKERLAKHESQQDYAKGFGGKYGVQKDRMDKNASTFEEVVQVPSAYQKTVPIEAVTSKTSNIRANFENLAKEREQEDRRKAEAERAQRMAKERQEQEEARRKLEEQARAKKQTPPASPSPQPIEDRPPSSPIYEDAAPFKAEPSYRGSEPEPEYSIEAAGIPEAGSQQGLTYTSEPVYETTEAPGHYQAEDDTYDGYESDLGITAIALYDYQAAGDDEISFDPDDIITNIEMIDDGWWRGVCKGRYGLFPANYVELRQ

Legend:
[1] = target: FAK, endogenous in MEFs (mouse (endogenous in MEFs)) (UniProt P34152); assay: co-IP; as a2, lysates of cells replated onto FN for 30 min
[2] = target: FAK, endogenous in MEFs (mouse (endogenous in MEFs)) (UniProt P34152); assay: co-IP; lysates of MEFs or GFP-FAK reconstituted FAK-/- MEFs held in suspension or replated on FN (30 and 60 min); Extraction Buffer with 1% Triton X-100, 0.5% sodium deoxycholate, 0.1% SDS, cytochalasin-D and latrunculin-A; IP with antibodies to FAK, cortactin or GFP, 2 h at 4°C; immunoblotting
[3] = target: cortactin, endogenous in MEFs (mouse (endogenous in MEFs)) (UniProt Q60598); assay: as above

Row | Substance | binding [1] | binding [2] | binding [3]
1 | cortactin, endogenous in MEFs (from UniProt Q60598 1-546) | binds weakly | binds | –
2 | FAK, endogenous in MEFs (from UniProt P34152 1-1052) | – | – | binds
